Drawing on patent US20260256936A1 (priority 2023, published 2026), this text covers step yield for one substance.

The nature of this data set: general procedure: peptide synthesis; HATU/DIEA; HOBt/DIEA. To be noted: late stage modification step.

Regarding “(2S,3S,4S,5R,6R)-6-((S)-2-((S)-2-acetamido-3-methylbutanamido)-3-((3-((2-((((R)-4-amino-3-(2,5-dioxo-2,5-dihydro-1H-pyrrol-1-yl)butoxy)carbonyl)amino)ethyl)carbamoyl)-4-((5S,8S,11S,12R)-11-((S)-sec-butyl)-12-(2-((S)-2-((1R,2R)-3-(((1S,2R)-1-hydroxy-1-phenylpropan-2-yl)amino)-1-methoxy-2-methyl-3-oxopropyl)pyrrolidin-1-yl)-2-oxoethyl)-5,8-diisopropyl-4,10-dimethyl-3,6,9-trioxo-2,13-dioxa-4,7,10-triazatetradecyl)phenyl)amino)-3-oxopropoxy)-3,4,5-trihydroxytetrahydro-2H-pyran-2-carboxylic acid—formic acid (1/1)”, the step yield turned out to be 65.8%.
